Measurements reported in paper PMC3107197.
Results are given in words; binding and its absence hold for the method and conditions named. For some assays here: Binding seen in cells or lysates may run through a third protein. Some binding calls cover weakened binding; strength is not graded here. Sequences can lack the tags named with a protein.

Sequences of proteins named here, by UniProt entry; tags and fusion partners are left off.
UniProt P34756: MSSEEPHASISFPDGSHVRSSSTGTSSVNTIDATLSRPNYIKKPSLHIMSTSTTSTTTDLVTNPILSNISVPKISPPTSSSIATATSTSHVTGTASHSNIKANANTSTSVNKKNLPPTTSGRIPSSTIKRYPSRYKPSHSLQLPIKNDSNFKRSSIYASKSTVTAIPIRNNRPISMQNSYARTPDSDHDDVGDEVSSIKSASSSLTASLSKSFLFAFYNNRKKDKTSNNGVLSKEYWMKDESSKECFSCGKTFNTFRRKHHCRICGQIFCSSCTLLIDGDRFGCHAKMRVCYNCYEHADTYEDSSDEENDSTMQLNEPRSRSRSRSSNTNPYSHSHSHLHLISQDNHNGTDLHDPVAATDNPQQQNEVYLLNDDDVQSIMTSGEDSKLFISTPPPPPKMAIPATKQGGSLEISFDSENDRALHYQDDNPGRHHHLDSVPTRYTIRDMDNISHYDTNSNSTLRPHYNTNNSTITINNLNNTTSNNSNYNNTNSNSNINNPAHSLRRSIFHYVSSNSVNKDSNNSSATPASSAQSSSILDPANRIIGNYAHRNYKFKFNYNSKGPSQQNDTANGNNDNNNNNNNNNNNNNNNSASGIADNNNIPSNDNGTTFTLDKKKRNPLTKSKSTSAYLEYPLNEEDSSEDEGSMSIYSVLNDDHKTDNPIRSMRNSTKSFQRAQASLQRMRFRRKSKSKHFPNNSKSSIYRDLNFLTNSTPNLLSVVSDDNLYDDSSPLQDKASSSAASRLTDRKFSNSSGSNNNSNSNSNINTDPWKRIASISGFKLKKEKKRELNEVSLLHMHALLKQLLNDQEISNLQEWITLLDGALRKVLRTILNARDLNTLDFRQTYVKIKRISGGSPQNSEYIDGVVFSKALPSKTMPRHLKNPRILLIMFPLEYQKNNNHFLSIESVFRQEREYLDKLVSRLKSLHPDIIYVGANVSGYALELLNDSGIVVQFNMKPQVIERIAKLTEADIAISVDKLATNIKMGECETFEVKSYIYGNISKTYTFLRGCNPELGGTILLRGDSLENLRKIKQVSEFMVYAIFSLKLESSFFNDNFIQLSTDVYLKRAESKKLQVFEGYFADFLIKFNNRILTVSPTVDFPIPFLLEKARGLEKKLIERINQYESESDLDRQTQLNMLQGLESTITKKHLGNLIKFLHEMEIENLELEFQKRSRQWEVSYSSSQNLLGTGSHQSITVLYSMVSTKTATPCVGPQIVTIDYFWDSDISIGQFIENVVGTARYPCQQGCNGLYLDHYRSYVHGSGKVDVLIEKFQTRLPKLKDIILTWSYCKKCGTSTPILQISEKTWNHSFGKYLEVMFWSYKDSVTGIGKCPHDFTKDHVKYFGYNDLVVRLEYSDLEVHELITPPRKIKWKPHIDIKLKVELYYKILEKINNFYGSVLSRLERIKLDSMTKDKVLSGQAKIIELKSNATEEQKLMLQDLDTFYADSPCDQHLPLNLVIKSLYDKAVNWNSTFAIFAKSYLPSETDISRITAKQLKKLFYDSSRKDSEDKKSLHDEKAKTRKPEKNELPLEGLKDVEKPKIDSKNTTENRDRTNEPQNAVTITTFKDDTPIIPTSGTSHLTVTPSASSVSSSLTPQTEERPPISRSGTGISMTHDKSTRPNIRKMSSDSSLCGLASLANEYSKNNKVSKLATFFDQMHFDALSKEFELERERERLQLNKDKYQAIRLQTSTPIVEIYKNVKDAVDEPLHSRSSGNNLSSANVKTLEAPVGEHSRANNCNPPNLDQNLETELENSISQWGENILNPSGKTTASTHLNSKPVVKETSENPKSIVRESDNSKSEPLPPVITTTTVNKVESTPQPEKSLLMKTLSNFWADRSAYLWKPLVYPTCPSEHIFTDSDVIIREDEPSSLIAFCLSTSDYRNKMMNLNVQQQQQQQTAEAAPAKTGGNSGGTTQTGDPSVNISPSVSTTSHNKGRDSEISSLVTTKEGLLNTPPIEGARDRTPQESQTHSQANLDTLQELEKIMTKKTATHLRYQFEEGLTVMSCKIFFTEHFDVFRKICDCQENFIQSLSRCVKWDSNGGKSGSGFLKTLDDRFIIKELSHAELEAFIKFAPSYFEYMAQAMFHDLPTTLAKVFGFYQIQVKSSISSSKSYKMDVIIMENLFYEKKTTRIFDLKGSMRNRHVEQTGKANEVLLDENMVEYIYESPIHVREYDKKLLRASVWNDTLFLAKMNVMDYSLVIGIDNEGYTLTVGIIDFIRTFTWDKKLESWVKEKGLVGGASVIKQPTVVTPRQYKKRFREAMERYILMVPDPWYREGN

T1: myc-tagged Fig4p (wildtype, yeast) (yeast) (UniProt P42837)
T1 sequence: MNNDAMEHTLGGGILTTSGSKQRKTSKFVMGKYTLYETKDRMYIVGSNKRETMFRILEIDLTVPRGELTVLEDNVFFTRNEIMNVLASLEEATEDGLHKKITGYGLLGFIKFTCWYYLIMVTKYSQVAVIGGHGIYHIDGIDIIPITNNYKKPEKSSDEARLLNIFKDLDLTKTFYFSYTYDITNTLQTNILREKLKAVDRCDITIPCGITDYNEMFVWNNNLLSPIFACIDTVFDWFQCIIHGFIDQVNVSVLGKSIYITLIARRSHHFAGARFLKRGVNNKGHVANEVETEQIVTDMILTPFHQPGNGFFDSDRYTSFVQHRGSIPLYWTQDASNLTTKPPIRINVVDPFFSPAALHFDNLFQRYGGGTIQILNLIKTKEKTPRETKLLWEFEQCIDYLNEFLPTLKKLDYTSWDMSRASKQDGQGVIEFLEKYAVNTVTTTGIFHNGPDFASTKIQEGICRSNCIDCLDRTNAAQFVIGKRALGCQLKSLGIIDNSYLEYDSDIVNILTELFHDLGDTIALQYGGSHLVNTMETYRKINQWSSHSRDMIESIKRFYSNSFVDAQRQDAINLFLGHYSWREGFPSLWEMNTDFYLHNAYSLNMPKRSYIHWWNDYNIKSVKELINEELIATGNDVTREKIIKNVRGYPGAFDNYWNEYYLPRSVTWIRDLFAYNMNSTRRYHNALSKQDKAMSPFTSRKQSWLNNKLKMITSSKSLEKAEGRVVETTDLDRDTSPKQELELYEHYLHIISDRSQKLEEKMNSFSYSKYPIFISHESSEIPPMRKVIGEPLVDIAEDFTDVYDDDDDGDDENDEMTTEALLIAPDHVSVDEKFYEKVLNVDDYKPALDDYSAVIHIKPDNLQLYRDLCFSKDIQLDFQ

T2: myc-tagged Fig4p-I59T (yeast) (yeast) (UniProt P42837)
T2 sequence: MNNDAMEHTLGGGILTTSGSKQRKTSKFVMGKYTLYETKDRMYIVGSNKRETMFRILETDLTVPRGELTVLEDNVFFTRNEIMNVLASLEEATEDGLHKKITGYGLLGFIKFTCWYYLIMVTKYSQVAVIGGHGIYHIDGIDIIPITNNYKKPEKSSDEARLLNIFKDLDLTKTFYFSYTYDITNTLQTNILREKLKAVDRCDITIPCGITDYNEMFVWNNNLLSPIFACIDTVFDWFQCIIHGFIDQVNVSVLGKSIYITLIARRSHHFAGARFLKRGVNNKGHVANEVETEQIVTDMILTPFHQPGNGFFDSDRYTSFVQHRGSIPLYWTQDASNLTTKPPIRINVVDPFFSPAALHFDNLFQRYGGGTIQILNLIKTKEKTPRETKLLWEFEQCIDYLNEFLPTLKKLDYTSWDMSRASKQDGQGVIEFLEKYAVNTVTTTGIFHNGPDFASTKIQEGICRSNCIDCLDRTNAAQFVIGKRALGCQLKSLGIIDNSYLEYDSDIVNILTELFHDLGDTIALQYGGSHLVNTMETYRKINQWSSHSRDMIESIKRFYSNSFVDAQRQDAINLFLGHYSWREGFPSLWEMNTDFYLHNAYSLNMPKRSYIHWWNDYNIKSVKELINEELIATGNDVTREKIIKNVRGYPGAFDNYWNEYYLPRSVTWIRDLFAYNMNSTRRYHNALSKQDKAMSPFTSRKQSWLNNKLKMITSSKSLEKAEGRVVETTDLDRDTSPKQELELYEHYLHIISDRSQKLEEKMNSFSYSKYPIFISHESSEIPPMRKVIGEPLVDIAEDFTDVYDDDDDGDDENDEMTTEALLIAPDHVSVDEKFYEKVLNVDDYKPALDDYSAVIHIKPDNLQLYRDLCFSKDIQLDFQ

T3: yeast Fig4p (wildtype) fused to the DNA binding domain of GAL4 (yeast) (UniProt P42837)
T3 sequence: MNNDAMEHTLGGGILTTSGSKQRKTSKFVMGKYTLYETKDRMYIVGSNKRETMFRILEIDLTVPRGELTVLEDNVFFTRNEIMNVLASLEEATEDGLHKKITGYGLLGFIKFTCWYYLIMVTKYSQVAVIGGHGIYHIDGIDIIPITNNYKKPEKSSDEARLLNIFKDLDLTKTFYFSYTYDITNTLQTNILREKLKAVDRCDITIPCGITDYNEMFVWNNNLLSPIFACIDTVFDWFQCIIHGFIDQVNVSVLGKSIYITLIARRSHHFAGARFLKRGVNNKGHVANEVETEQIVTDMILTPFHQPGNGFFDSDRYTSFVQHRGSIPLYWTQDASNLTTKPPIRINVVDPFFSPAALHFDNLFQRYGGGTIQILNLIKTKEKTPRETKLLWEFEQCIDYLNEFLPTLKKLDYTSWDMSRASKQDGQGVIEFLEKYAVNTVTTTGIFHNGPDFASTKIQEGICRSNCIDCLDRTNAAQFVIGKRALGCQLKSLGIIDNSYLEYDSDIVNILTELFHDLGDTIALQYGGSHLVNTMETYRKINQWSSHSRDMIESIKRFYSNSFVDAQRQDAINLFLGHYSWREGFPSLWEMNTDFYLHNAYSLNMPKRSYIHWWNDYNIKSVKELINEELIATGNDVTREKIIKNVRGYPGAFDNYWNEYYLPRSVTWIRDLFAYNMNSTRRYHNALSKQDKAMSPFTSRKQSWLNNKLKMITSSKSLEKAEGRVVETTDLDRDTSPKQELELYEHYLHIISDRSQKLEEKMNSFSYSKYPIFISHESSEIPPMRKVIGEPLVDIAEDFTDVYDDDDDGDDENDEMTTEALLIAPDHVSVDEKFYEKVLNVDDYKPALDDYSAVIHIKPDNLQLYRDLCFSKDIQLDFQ

T4: yeast Fig4p-I59T fused to the DNA binding domain of GAL4 (yeast) (UniProt P42837)
T4 sequence: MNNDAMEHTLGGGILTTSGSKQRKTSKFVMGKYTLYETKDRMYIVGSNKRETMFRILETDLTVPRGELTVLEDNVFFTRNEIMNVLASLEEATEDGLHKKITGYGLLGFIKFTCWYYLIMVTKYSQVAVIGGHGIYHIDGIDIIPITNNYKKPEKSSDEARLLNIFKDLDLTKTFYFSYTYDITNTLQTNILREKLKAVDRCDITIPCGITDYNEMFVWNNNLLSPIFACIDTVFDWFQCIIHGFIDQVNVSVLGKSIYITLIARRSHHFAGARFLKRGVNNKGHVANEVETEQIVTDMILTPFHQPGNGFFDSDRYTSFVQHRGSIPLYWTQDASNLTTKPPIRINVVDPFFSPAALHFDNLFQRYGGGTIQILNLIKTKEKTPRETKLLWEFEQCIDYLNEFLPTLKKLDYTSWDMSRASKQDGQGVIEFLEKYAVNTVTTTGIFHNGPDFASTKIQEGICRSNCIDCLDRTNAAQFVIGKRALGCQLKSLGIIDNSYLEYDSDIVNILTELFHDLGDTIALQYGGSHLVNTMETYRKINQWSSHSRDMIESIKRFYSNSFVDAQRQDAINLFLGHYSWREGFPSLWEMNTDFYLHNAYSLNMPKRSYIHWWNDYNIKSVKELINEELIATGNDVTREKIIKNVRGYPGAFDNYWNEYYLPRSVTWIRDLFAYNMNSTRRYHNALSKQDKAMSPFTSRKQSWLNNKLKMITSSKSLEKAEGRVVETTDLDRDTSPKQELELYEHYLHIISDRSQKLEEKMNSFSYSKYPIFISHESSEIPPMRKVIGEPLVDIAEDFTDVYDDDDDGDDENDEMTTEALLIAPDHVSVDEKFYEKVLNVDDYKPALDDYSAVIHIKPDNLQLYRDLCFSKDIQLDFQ


How the values were obtained:
[1] = target: T1, myc-tagged Fig4p (wildtype, yeast) (yeast); assay: co-IP; myc-tagged Fig4p with GFP (Venus)-tagged Vac14p or GFP-tagged Fab1p, from yeast lysates; densitometry of non-saturated images, mutant ratio normalized to wildtype
[2] = target: T2, myc-tagged Fig4p-I59T (yeast) (yeast); assay: as above
[3] = target: T3, yeast Fig4p (wildtype) fused to the DNA binding domain of GAL4 (yeast); assay: two-hybrid; directed yeast two-hybrid; FIG4 in pGBD (GAL4 DNA binding domain), VAC14 in pGAD (activation domain); strain PJ69-4A; SC-LEU-TRP-ADE-HIS with (more stringent) or without (less stringent) 3AT; 24°C, 4 to 14 days
[4] = target: T4, yeast Fig4p-I59T fused to the DNA binding domain of GAL4 (yeast); assay: as above

binding [1] | binding [2] | binding [3] | binding [4] | Molecule
binds | binds |  |  | GFP-tagged Fab1p (yeast) (from UniProt P34756 1-2278)
 |  | binds | binds | yeast Vac14p fused to the transcription activation domain (protein, UniProt Q06708 1-880) MEKSIAKGLSDKLYEKRKAAALELEKLVKQCVLEGDYDRIDKIIDELCRDYAYALHQPMARNAGLMGLAATAIALGINDVGRYLRNILPPVLACFGDQNDQVRFYACESLYNIAKIAKGEILVYFNEIFDVLCKISADTENSVRGAAELLDRLIKDIVAERASNYISIVNNGSHGLLPAIKTDPISGDVYQEEYEQDNQLAFSLPKFIPLLTERIYAINPDTRVFLVDWLKVLLNTPGLELISYLPSFLGGLFTFLGDSHKDVRTVTHTLMDSLLHEVDRISKLQTEIKMKRLERLKMLEDKYNNSSTPTKKADGALIAEKKKTLMTALGGLSKPLSMETDDTKLSNTNETDDERHLTSQEQLLDSEATSQEPLRDGEEYIPGQDINLNFPEVITVLVNNLASSEAEIQLIALHWIQVILSISPNVFIPFLSKILSVLLKLLSDSDPHITEIAQLVNGQLLSLCSSYVGKETDGKIAYGPIVNSLTLQFFDSRIDAKIACLDWLILIYHKAPNQILKHNDSMFLTLLKSLSNRDSVLIEKALSLLQSLCSDSNDNYLRQFLQDLLTLFKRDTKLVKTRANFIMRQISSRLSPERVYKVISSILDNYNDTTFVKMMIQILSTNLITSPEMSSLRNKLRTCEDGMFFNSLFKSWCPNPVSVISLCFVAENYELAYTVLQTYANYELKLNDLVQLDILIQLFESPVFTRMRLQLLEQQKHPFLHKCLFGILMIIPQSKAFETLNRRLNSLNIWTSQSYVMNNYIRQRENSNFCDSNSDISQRSVSQSKLHFQELINHFKAVSEEDEYSSDMIRLDHGANNKSLLLGSFLDGIDEDKQEIVTPISPMNEAINEEMESPNDNSSVILKDSGSLPFNRNVSDKLKK
binds |  |  |  | GFP (Venus)-tagged Vac14p (yeast) (protein, UniProt Q06708 1-880) MEKSIAKGLSDKLYEKRKAAALELEKLVKQCVLEGDYDRIDKIIDELCRDYAYALHQPMARNAGLMGLAATAIALGINDVGRYLRNILPPVLACFGDQNDQVRFYACESLYNIAKIAKGEILVYFNEIFDVLCKISADTENSVRGAAELLDRLIKDIVAERASNYISIVNNGSHGLLPAIKTDPISGDVYQEEYEQDNQLAFSLPKFIPLLTERIYAINPDTRVFLVDWLKVLLNTPGLELISYLPSFLGGLFTFLGDSHKDVRTVTHTLMDSLLHEVDRISKLQTEIKMKRLERLKMLEDKYNNSSTPTKKADGALIAEKKKTLMTALGGLSKPLSMETDDTKLSNTNETDDERHLTSQEQLLDSEATSQEPLRDGEEYIPGQDINLNFPEVITVLVNNLASSEAEIQLIALHWIQVILSISPNVFIPFLSKILSVLLKLLSDSDPHITEIAQLVNGQLLSLCSSYVGKETDGKIAYGPIVNSLTLQFFDSRIDAKIACLDWLILIYHKAPNQILKHNDSMFLTLLKSLSNRDSVLIEKALSLLQSLCSDSNDNYLRQFLQDLLTLFKRDTKLVKTRANFIMRQISSRLSPERVYKVISSILDNYNDTTFVKMMIQILSTNLITSPEMSSLRNKLRTCEDGMFFNSLFKSWCPNPVSVISLCFVAENYELAYTVLQTYANYELKLNDLVQLDILIQLFESPVFTRMRLQLLEQQKHPFLHKCLFGILMIIPQSKAFETLNRRLNSLNIWTSQSYVMNNYIRQRENSNFCDSNSDISQRSVSQSKLHFQELINHFKAVSEEDEYSSDMIRLDHGANNKSLLLGSFLDGIDEDKQEIVTPISPMNEAINEEMESPNDNSSVILKDSGSLPFNRNVSDKLKK
